ChEMBL document CHEMBL3045495, “Lipophilic 2-(4-chlorophenyl)-4-thiazolyl-1,4-dihydropyridines: synthesis, calcium channel antagonist activity, and protection against pentylenetetrazole-induced seizure” (Med Chem Res, 2009)

The chains behind the UniProt entries cited, without tags or fusion partners.
UniProt O35505, whole entry: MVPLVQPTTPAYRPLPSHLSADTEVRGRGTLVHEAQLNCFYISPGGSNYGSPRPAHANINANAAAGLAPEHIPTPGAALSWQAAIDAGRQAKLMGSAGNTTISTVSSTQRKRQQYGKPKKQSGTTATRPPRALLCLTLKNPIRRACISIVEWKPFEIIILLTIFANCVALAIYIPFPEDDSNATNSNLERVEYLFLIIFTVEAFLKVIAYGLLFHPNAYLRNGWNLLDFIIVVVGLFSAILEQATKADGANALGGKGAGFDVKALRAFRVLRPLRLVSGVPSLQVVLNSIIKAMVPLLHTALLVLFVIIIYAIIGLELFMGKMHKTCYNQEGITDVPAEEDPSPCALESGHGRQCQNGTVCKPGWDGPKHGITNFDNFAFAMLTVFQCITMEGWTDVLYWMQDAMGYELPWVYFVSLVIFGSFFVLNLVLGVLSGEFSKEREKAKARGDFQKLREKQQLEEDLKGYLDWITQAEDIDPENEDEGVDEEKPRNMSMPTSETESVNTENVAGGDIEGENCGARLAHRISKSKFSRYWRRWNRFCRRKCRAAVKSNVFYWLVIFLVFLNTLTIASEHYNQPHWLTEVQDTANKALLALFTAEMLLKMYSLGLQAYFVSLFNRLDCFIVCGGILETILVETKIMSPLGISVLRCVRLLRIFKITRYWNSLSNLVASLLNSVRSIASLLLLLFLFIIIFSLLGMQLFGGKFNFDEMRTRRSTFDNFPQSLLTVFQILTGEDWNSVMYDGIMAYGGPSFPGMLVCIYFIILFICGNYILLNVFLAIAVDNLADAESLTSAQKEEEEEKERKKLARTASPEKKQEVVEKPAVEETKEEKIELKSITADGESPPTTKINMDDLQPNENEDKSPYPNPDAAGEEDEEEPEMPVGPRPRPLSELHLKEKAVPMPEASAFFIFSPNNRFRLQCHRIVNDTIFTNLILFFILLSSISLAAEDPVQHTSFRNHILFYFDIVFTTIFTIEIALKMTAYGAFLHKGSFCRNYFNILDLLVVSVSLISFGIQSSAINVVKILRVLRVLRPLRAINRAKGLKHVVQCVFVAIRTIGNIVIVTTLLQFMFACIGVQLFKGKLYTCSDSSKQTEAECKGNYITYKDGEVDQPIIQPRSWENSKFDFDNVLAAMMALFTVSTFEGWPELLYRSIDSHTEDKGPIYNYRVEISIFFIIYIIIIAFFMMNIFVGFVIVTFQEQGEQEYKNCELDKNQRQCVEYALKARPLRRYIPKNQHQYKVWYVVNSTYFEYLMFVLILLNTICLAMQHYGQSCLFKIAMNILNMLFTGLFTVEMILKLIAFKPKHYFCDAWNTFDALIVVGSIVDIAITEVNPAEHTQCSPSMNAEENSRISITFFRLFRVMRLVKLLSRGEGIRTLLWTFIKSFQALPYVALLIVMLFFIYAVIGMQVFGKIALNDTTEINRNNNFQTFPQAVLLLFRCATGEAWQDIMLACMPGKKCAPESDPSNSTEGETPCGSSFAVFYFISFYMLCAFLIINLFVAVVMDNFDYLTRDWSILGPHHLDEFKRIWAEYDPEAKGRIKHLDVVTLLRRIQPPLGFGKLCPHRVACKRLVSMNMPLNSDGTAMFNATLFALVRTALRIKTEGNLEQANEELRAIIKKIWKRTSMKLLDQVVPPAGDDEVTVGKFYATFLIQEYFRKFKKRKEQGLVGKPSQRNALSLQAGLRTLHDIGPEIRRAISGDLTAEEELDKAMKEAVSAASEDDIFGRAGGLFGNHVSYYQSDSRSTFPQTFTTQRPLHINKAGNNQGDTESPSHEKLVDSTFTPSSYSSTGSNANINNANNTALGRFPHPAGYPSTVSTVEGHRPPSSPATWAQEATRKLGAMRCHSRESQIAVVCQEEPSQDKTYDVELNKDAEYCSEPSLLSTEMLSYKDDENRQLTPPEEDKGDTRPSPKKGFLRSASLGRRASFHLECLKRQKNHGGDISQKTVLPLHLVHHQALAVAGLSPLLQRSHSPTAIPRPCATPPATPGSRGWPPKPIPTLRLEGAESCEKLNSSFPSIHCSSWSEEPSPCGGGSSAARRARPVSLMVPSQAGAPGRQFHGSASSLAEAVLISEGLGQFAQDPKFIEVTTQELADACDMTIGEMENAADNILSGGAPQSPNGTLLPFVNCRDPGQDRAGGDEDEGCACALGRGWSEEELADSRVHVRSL

Biological target: Voltage-dependent L-type calcium channel subunit alpha-1C (Cavia porcellus, UniProt O35505)
Experiment: Antagonist activity at Calcium channel in Cavia porcellus (guinea pig) ileal smooth muscle assessed as inhibition of 40 mM KCl-induced contraction compound pretreated for 15 min before KCl treatment

COC(=O)C1=C(C)NC(C)=C(C(=O)OC)C1c1ccccc1[N+](=O)[O-] [NIFEDIPINE]
IC50: 50 nM
